According to patent US20070154905A1:
No constants are given. Whether binding was seen depends on the method and setting. For part of these data: Binding seen in cells or lysates may run through a third protein. Some binding calls cover weakened binding; strength is not graded here. For part of these data: Sequences can lack the tags named with a protein. Blank lines part the entries; values can stand above or below the binder they belong to.

By UniProt entry, the sequences of proteins in these tests, tags left out. Residues count along the entry.
UniProt P25445, residues 26-335: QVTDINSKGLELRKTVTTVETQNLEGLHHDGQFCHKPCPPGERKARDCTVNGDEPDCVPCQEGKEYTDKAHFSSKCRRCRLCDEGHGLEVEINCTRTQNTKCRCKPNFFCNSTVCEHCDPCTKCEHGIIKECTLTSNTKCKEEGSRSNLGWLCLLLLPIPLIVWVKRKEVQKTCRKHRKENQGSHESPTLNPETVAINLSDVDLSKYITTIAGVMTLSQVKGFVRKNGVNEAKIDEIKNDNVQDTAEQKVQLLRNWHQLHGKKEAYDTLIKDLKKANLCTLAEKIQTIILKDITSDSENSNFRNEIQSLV

Legend:
[1] = biological target: T1, MORT-1 protein (full-length) (human); test: yeast two-hybrid, β-galactosidase filter assay
T1 sequence: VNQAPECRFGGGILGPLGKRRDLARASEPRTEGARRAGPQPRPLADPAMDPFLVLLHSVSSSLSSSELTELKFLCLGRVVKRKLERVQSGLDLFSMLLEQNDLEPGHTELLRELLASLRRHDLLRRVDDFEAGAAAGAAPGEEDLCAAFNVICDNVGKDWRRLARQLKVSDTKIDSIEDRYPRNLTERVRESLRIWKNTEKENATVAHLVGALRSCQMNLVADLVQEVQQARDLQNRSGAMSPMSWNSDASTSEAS

[2] = biological target: T2, MORT1 fused at its N terminus to the HA epitope (human); test: co-immunoprecipitation of 35S-labelled FLAG- and HA-tagged proteins from HeLa cells, SDS-PAGE and autoradiography
T2 sequence: T1 sequence

[3] = biological target: T3, glutathione-S-transferase-MORT-1 fusion protein (human); test: in vitro binding to GST-MORT-1
T3 sequence: T1 sequence

[4] = biological target: T1, MORT-1 protein (full-length) (human); test: co-expression in mammalian cells
[5] = biological target: T4, MORT-1 fragment, amino acids 1-117 (N-terminal part) (human); test: yeast two-hybrid, β-gal filter assay (FIG. 5)
T4 sequence: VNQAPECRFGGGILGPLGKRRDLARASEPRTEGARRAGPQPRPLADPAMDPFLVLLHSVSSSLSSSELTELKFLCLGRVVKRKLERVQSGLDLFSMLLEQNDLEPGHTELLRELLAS

[6] = biological target: T1, MORT-1 protein (full-length) (human); test: co-immunoprecipitation from 293-EBNA cell lysates
[7] = biological target: T1, MORT-1 protein (full-length) (human); test: yeast two-hybrid screen of a human B cell library with MORT-1 as bait
[8] = biological target: T1, MORT-1 protein (full-length) (human); test: yeast two-hybrid, β-galactosidase test (FIG. 1)
[9] = biological target: human FAS-R (whole receptor expressed in HeLa cells) (human) (UniProt P25445); test: cross immunoprecipitation from co-transfected HeLa cells, both directions
[10] = biological target: GST fusion with the human Fas-IC (human) [GST: P08515]; test: GST pull-down of 35S-labelled FLAG-MORT-1 from HeLa extracts, SDS-PAGE and autoradiography
[11] = biological target: T5, GST fusion with the mouse Fas-IC (mouse) (UniProt P25446); test: as above
T5 sequence (looked up): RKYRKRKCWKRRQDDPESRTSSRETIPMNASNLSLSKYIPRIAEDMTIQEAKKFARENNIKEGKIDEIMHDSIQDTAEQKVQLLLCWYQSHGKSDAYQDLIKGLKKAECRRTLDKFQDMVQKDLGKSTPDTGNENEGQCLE

[12] = biological target: T6, intracellular domain of mouse FAS-R (full-length Fas-IC construct) (mouse) (UniProt P25446); test: yeast two-hybrid, β-galactosidase test (FIG. 1)
T6 sequence (looked up): T5 sequence (looked up)

[13] = biological target: T7, MORT-1-binding protein of Example 2 (product of the two cDNA clones from the human B-cell library) (human) (UniProt Q15628); test: yeast two-hybrid screen of a human B cell library with MORT-1 as bait
T7 sequence (looked up): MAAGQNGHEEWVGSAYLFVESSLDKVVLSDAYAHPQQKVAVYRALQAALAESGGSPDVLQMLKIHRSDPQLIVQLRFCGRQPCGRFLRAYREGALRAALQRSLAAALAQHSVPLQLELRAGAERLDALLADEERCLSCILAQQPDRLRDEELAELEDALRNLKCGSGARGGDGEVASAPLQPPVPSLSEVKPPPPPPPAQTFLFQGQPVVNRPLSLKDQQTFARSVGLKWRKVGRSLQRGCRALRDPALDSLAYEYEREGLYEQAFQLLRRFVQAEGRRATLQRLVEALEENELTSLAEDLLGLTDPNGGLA

binding [1]: binds
B1: MACH (construct with the full-length MACH cDNA) (protein)
chain: MDFSRNLYDIGEQLDSEDLASLKFLSLDYIPQRKQEPIKDALMLFQRLQEKRMLEESNLSFLKELLFRINRLDLLITYLNTRKEEMERELQTPGRAQISAYRVMLYQISEEVSRSELRSFKFLLQEEISKCKLDDDMNLLDIFIEMEKRVILGEGKLDILKRVCAQINKSLLKIINDYEEFSKERSSSLEGSPDEFSNDFGQSLPNEKQTSGILSDHQQSQFCKSTGESAQTSQH

binding [2]: binds
B2: MACHβ1 fused at its N-terminus to the FLAG octapeptide (protein, not shown: small tags and cut ends)
chain: B1 chain

binding [3]: binds
binding [4]: binds
binding [5]: binds
binding [6]: binds
binding [7]: binds
B3: MACHβ1 (ORF-B of MACH) (protein)
chain: B1 chain

binding [8]: binds
B4: MORT-1 fragment, amino acids 1-117 (N-terminal part) (protein)
chain: T4 sequence

binding [9]: binds
binding [10]: binds
binding [11]: binds
B5: MORT-1 fused at its N terminus with the FLAG octapeptide (protein, not shown: small tags and cut ends)
chain: T1 sequence

binding [8]: binds
binding [12]: binds
binding [7]: binds
binding [13]: binds
B6: MORT-1 protein (full-length) (protein)
chain: T1 sequence
